Library screen at single concentrations

Amino acid sequences for entries named in this document (tags omitted). Residues count along the entry.
UniProt A4I591, 1-473: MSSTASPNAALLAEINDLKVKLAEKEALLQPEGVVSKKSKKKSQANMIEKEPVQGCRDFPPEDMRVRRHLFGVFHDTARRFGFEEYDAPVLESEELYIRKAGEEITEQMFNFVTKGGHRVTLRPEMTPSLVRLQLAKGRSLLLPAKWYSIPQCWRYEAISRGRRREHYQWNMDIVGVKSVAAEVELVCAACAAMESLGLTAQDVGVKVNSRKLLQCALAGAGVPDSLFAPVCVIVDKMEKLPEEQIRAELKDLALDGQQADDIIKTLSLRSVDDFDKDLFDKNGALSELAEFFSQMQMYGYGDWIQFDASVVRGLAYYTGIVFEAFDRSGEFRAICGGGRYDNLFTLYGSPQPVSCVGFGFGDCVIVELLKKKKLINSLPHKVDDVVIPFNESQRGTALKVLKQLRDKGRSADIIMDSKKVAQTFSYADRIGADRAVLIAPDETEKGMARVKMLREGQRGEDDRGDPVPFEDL
UniProt Q4DA54, 1-478: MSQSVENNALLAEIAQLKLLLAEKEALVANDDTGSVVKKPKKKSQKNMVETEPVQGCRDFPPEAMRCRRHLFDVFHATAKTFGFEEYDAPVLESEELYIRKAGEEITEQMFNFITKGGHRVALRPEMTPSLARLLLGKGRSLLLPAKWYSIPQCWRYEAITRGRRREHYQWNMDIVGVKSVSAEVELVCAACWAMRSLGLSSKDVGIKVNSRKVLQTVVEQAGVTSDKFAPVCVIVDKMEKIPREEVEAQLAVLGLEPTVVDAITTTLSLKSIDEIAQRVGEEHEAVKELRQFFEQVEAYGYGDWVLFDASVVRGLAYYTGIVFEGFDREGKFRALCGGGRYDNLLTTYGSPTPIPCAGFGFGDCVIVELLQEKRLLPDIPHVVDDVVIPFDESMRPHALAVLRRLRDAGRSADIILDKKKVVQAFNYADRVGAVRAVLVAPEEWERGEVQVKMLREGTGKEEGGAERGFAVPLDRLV
UniProt P9WPC5, whole entry: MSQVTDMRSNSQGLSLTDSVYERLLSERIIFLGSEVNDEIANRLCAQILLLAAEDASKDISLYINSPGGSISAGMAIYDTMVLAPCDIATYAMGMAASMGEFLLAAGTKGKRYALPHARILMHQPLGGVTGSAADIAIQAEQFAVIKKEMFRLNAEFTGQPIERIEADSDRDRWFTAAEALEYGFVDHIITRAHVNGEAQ
UniProt P9WPC3, whole entry partner: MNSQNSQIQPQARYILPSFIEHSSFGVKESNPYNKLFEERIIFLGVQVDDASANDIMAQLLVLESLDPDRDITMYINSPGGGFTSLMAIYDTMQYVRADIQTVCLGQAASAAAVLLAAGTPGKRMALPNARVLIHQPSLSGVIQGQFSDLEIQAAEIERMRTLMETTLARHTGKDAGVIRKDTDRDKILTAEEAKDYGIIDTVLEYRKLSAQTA

LiHisRS: 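Enzyme assay of histidyl-tRNA synthetase; the read-out is not stated. Target: Histidine-tRNA ligase, Leishmania infantum (UniProt A4I591). Tested at 30 µM. The record gives no direction; compounds that gave an IC50 in retests scored well above the rest, so higher reads as stronger inhibition. The assay is labelled LdHisRS but filed under L. infantum. Size under these conditions: about 69,000 compounds, about 410 of them at 50% or above in at least one test.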
TcHisRS: 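Enzyme assay of histidyl-tRNA synthetase; the read-out is not stated. Target: Histidine-tRNA ligase, Trypanosoma cruzi CL Brener (UniProt Q4DA54). Compounds at 30 µM. Direction is inferred from retests: higher values go with stronger inhibition. Of about 69,000 compounds tested this way, about 31 (0.045%) reached 50% or more in at least one test.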
ClpP1P2: 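Protease assay of ClpP1P2, read by the AMC dye that it sets free. Target: ClpP1P2, Mycobacterium tuberculosis (UniProt P9WPC5 and UniProt P9WPC3). Tested at 50 µM. Direction is inferred from only a few compounds that gave an IC50; most scored high, so higher reads as stronger inhibition. Most other retested compounds had strongly negative values. About 69,000 compounds were tested under these conditions; 0.015% (about 10) showed 50% or more at least once.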

Each number is a percent effect as filed. The record does not define 0% and 100%; most values in the screen are far below 50% and negative numbers occur (in some assays of this library far below -100). Compounds were drawn at random from those tested, without regard to their results.

structure	LiHisRS	TcHisRS	ClpP1P2
O=C(CCO)N1CC[C@@H]2CN(C(=O)c3ccco3)CCO[C@@H]2C1	16%	5.882%	-3.397%
Cn1cc(CN2CCC(F)(F)C3(CCN(c4ccccn4)C3)C2)cn1 (stereo not drawn)	17.81%	6%	-7.549%
COc1cccc(C(=O)N2CCOC3(CCCN(C(C)=O)C3)C2)c1 (stereo not drawn)	26%	1.961%	2.409%
Cc1nc(N2CCCC2)nc2c1CN(C(C)C)CC2	16.98%	-0.5405%	8.243%
CCc1nnc2n1CCN(CC(=O)Nc1sccc1C#N)C2	4.545%	3.03%	-4.668%
CCn1ccc(C(=O)N2CCCC2c2nnc(-c3scnc3C)o2)n1 (stereo not drawn)	31.88%	5.303%	6.859%
CCC(NCc1ccccc1)c1ccccc1OCC(=O)NC (stereo not drawn)	21.92%	5.263%	-0.9135%
Cc1cc(C(=O)NC2CCCN(c3ccccc3)C2=O)on1 (stereo not drawn)	16.5%	5.394%	0.07968%
C=C(C)COc1cccc(C(=O)N(CC)Cc2nc(COC)no2)c1	16%	2.941%	-14.58%
Fc1cccnc1Oc1cc(F)c(CN2CCCC2)c(Cl)c1	-8.163%	3%	-1.067%
CC(C)N1CCO[C@H]2CN(C(=O)c3ccoc3)C[C@H]21	15.69%	8.197%	3.282%
COc1ccc(CC(=O)N2CCCC(n3cccn3)C2)cc1F (stereo not drawn)	5.172%	5.65%	-15.11%
COc1cc2ccn(CCS(C)(=O)=O)c(=O)c2cc1F	15.79%	0.8403%	-4.485%
CN(Cc1cscn1)C1CCCN(c2cccnn2)C1 (stereo not drawn)	19.13%	5.747%	12.19%
O=C(CN1CCCC1c1cccs1)N1CCc2sccc2C1 (stereo not drawn)	23.68%	7.267%	-43.26%
Cn1cnnc1CNC(=O)Nc1cc(C(F)(F)F)c[nH]c1=O	24.8%	-0.3802%	9.44%
Cc1oncc1C(=O)N[C@@H]1CN(Cc2ccco2)C[C@@H]2CCCO[C@@H]21	4.545%	2.116%	-2.421%
CSc1ncn(-c2nc(N(C)C)nc(N(C)C)n2)n1	10.11%	1.554%	12.64%
CCc1cccc(OCC(=O)N2CCCC(n3cncn3)C2)c1 (stereo not drawn)	16.67%	5.263%	2.595%
CS(=O)(=O)c1cn[nH]c1C1CCCN1C(=O)c1cccnc1 (stereo not drawn)	-9.474%	5.224%	-1.805%
COc1ccc(CNCc2nnc3n2CC(C(F)(F)F)CC3)cc1 (stereo not drawn)	-2.564%	-1.205%	-10.8%
Cn1nccc1C1CCN(Cc2ccn(-c3ccccc3)n2)CC1	18.28%	10.12%	-13.23%
Cc1ccc(Cl)cc1S(=O)(=O)NCc1cnc(N(C)C)n1C	9.821%	12.07%	-8.914%
CC(C)n1cnc2c(-c3cccnc3)nc(C3CCNCC3)cc21	14%	7.216%	16.49%
CCc1cnc(NCc2nc(CSC)no2)nc1	32.89%	1.478%	4.043%
CC(NC(=O)OC(C)(C)C)c1nnc(S(=O)(=O)Cc2ccc(Cl)cc2)o1 (stereo not drawn)	21.74%	12%	-13.71%
O=C1CC[C@H]2CN(c3ncc(F)cn3)CC[C@H]2N1CCc1ccccc1	11.29%	8.442%	-4.725%
CC(C(=O)N1CCn2cncc2C1)N1CCCC1 (stereo not drawn)	9.333%	4.046%	1.796%
CCSc1ncc(CN2CCC(O)(CN3CCOCC3)C(C)(C)C2)cn1 (stereo not drawn)	27.71%	-3.659%	2.117%
Cc1ccc(CN2CCn3cc(CNC(=O)c4cnn(C)c4)nc3C2)s1	22.22%	3.067%	1.971%
COc1ccc(CN(C(=O)C2CCCO2)c2ccncc2)cc1 (stereo not drawn)	7.527%	-1.786%	-2.484%
Cc1cc(C)nc(N2CCCC(C)(c3[nH]ncc3C(=O)N(C)C)C2)n1 (stereo not drawn)	8.392%	3.39%	-8.828%
CN1CCCC2(CCN(S(=O)(=O)c3ccc(-c4cnco4)s3)C2)C1=O (stereo not drawn)	11.48%	3.863%	-10.48%
COc1ccc(C(C)NCc2cccs2)cc1Cn1cccn1 (stereo not drawn)	1.429%	7.447%	-10.75%
C=C(C)COc1ccccc1NC(=O)N1CCOCC1CO (stereo not drawn)	13.33%	7.143%	-1.735%
Cn1ncc2c(=O)[nH]c(N3CCCC3c3cccs3)nc21 (stereo not drawn)	15.18%	0%	5.229%
CN(C1CCCCC1)S(=O)(=O)NC1CCN(c2ncccn2)CC1	16.88%	1.478%	-1.024%
Cc1nc(CN2C(=O)CCC23CCN(Cc2ccco2)CC3)cs1	4.505%	2.21%	-1.258%
O=C(CCN1CCCO1)N1CC[C@@H](c2ccc3ccccc3c2)[C@H](O)C1	12.28%	6.557%	-7.052%
O=C(c1cc(F)ccc1Br)N1CCN(C(=O)C2CC2)CC1	18.99%	-2.155%	-0.9293%
N#Cc1ccc(CNc2cccc(C(=O)N3CCOCC3)c2)cc1	22.35%	0.4484%	-7.098%
CC(NCc1ccc(OCC(N)=O)cc1)c1ccc(Cl)c(Cl)c1 (stereo not drawn)	23.14%	5.102%	0.9415%
NS(=O)(=O)c1ccc(F)c(C(=O)NCCSC2CCCCC2)c1	12.5%	5.319%	1.649%
CC(=O)N1CCCc2cc(NC(=O)NCCc3cnn(C)c3)ccc21	13.79%	2.618%	-11.37%
CC1(C)COCCN1C(=O)Cc1cc(Cl)c2c(c1)OCCO2	5%	0.8696%	-4.89%
O=C(c1cccnc1)N1C[C@@H](c2ccccc2)[C@@]2(CCNC2=O)C1	17.24%	6.329%	-6.32%
c1ccc2oc(CN3CCCCC3Cn3cncn3)nc2c1 (stereo not drawn)	3.571%	1.163%	-9.471%
CCCc1nnc(N[C@H](C)c2ccc(OC)cc2)o1	15.08%	14.12%	1.889%
O=C(NC(C1CC1)C1CC1)c1cccc[n+]1[O-]	3.665%	3.743%	4.733%
O=C(NC1CCCC1)[C@H]1CC[C@@H]2[C@@H](CCN2c2ncc(F)cn2)O1	0%	7.463%	-0.3053%

Some entries from above, unchanged:

| structure | LiHisRS | TcHisRS | ClpP1P2 |
|---|---|---|---|
| `O=C(NC(C1CC1)C1CC1)c1cccc[n+]1[O-]` | 3.665% | 3.743% | 4.733% |
| `C=C(C)COc1ccccc1NC(=O)N1CCOCC1CO` (stereo not drawn) | 13.33% | 7.143% | -1.735% |
| `O=C(c1cc(F)ccc1Br)N1CCN(C(=O)C2CC2)CC1` | 18.99% | -2.155% | -0.9293% |
| `N#Cc1ccc(CNc2cccc(C(=O)N3CCOCC3)c2)cc1` | 22.35% | 0.4484% | -7.098% |
| `Cc1cc(C(=O)NC2CCCN(c3ccccc3)C2=O)on1` (stereo not drawn) | 16.5% | 5.394% | 0.07968% |

Data taken from ChEMBL document CHEMBL3988442, “University of Dundee, Small-Polar-MMV Screening Library” (2021).